Laboratory results taken from PMC7819943, “Rice protein-binding microarrays: a tool to detect cis-acting elements near promoter regions in rice”.
The other results are listed elsewhere or left out.

Protein sequences, listed by entry. Tags and fused reporters are not part of them.
UniProt Q0JBA9, entry or part of it: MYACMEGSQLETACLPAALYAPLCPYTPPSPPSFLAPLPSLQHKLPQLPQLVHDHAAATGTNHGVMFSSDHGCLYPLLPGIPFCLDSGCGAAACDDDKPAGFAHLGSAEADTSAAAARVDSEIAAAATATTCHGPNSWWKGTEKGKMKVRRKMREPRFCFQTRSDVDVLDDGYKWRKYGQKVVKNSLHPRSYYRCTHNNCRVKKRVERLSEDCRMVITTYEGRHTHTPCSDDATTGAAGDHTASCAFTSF

molecular target: OsWRKY34 (Oryza sativa, UniProt Q0JBA9 1-250); test: protein-binding microarray (RPBM); PBS, 2% BSA, 51.3 ng/ul salmon testes DNA, 50 uM zinc acetate, 200 nM TF, 25 C, 1 h; high values mean tight binding; conditions: protein: recombinant; tags: N-terminal polyhistidine and DsRed monomer fusion (pET32a); label: CyDye5-dUTP incorporated in the synthesized complementary strand; 3' TTTTT single-stranded linker to array surface; dsDNA, one strand shown
In short: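 A custom Agilent array was converted to double-stranded form by primer extension with Cy5-dUTP and blocked with 2% BSA. Protein at 200 nM in PBS with 2% BSA, salmon testes DNA and 50 µM zinc acetate was applied for 1 h at 25 °C, followed by washing. The proteins were polyhistidine–DsRed N-terminal fusions of transcription factors, expressed in E. coli BL21-CodonPlus and Ni–NTA-purified. The binding signal is per-feature fluorescence intensity (arbitrary units) from an Axon 4000B scanner.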

Sequence | binding signal
TCTACTGATTTATATTCTTGTCTTATCACATTATCACCATCGGAGTCACCTAGTGCAG | 8230 fluorescence intensity (a.u.)
CCACAGGGGCAAAATCGTCATTCTCCATCCCCGTTGCAATCGGAGTCACCTAGTGCAG | 9310 fluorescence intensity (a.u.)
GGTGTACTCCTTTTAATACCACGCGGCTCTTCCGCGGACACGGAGTCACCTAGTGCAG | 9070 fluorescence intensity (a.u.)
AATCCTACACATTATTTTTATTTATTGTTACCATACTAAACGGAGTCACCTAGTGCAG | 8070 fluorescence intensity (a.u.)
TTTTGTCATTGCCGACTGATGCTTAATCACATTGTTGCGCCGGAGTCACCTAGTGCAG | 9120 fluorescence intensity (a.u.)
CTCACTGCACTGTCCCAGATCTCTCATTAATCCAACCCAGCGGAGTCACCTAGTGCAG | 8580 fluorescence intensity (a.u.)
TGAGGGGTGTTATTGGACAAAGGGCAGTAGTTAGGAGAAGCGGAGTCACCTAGTGCAG | 10400 fluorescence intensity (a.u.)
GTTCTGCGCCGTCTCGCCGGTCTCCATCTCCATCACCGGACGGAGTCACCTAGTGCAG | 8810 fluorescence intensity (a.u.)
ATCCAAATCAACGGTCCAACATTACTTGCCAGTTAGCCACCGGAGTCACCTAGTGCAG | 8700 fluorescence intensity (a.u.)
TTTGGCGCTGGTTAATATCCTAGTATGTTTCTTTGTCCCTCGGAGTCACCTAGTGCAG | 8880 fluorescence intensity (a.u.)
CATACTATAAACATGCTGGGCTGTGAGGACCTTGCTTTTCCGGAGTCACCTAGTGCAG | 8070 fluorescence intensity (a.u.)
GTGCGCCGGCGTGTGGTGGTGGGTGTGTAAGGGTAGGTGGCGGAGTCACCTAGTGCAG | 8800 fluorescence intensity (a.u.)
ACATGTTGTCACCCTATAGGCAATTGGATGGACCACACACCGGAGTCACCTAGTGCAG | 8400 fluorescence intensity (a.u.)
GATTGATTCCCTTTCTCCTCCGGAGTTGTCTTCTCCTCAGCGGAGTCACCTAGTGCAG | 8910 fluorescence intensity (a.u.)
AATTTATGGAGATCATTTTTTTTCTGTTTCAAAGGAAAAACGGAGTCACCTAGTGCAG | 19200 fluorescence intensity (a.u.)
ACCAAAGGTCCAGTATTTACCACTTAATTAACACTGCTAGCGGAGTCACCTAGTGCAG | 9810 fluorescence intensity (a.u.)
TCTTCTAATCTGGACCATTTTCGACATTCTGAAATTCTGACGGAGTCACCTAGTGCAG | 8070 fluorescence intensity (a.u.)
GCAATATATTACCATTAATTCCTTGTGTGCACTTCCCCGCCGGAGTCACCTAGTGCAG | 10600 fluorescence intensity (a.u.)
CCTTTTCATGGTGGGCCTAGTTTTGAAAATGCCGGTAGCTCGGAGTCACCTAGTGCAG | 8190 fluorescence intensity (a.u.)
CGCGCTGCCTTTATAGGCCACTCCCACCACCGCCGCCGCCCGGAGTCACCTAGTGCAG | 8040 fluorescence intensity (a.u.)
ATTTAAGGTGGGACTCATCTCCTTCTTTCTTCTTCAGTCTCGGAGTCACCTAGTGCAG | 9170 fluorescence intensity (a.u.)
GCTTCTCTTCTTCTTCTTCGCCTCGCCCTTGCCTCGTTCCCGGAGTCACCTAGTGCAG | 9330 fluorescence intensity (a.u.)
GCTGAATTTGTGTGCATGTATATCCATCCATTCATCGTTCCGGAGTCACCTAGTGCAG | 9460 fluorescence intensity (a.u.)
TTGTACTGTCTACCTACTGGCCACTCTGCAACTGCCATTGCGGAGTCACCTAGTGCAG | 8210 fluorescence intensity (a.u.)
TGCGCTGACTGTTTTTTTACCCCGAAAGCTATCCCATTTCCGGAGTCACCTAGTGCAG | 10100 fluorescence intensity (a.u.)
CCAAGTCAAAATCATACCTTGCCATGCTCTCCAAGCTACTCGGAGTCACCTAGTGCAG | 8550 fluorescence intensity (a.u.)
TCTATCTCCTTTTATCTATATATCTCATTCATTTTTGGTTCGGAGTCACCTAGTGCAG | 11000 fluorescence intensity (a.u.)

Quoted from the entries so far (two entries):
Sequence | binding signal
ACATGTTGTCACCCTATAGGCAATTGGATGGACCACACACCGGAGTCACCTAGTGCAG | 8400 fluorescence intensity (a.u.)
GATTGATTCCCTTTCTCCTCCGGAGTTGTCTTCTCCTCAGCGGAGTCACCTAGTGCAG | 8910 fluorescence intensity (a.u.)

More results.

Sequence | binding signal
GCTCCACGTCCCACCGCCCTTGTTGCCTGTCGGTTGCTCGCGGAGTCACCTAGTGCAG | 11700 fluorescence intensity (a.u.)
TGTCACTGAAACACTTCACCGGATTATTTACTCCACGTCTCGGAGTCACCTAGTGCAG | 11700 fluorescence intensity (a.u.)
CGAATGGTCAAACATATGAGAAAAAGTCAACGATGTCATCCGGAGTCACCTAGTGCAG | 13900 fluorescence intensity (a.u.)
CCCGCACGAACTCCACAGATATTTCACGGCTTTTCCCCGTCGGAGTCACCTAGTGCAG | 11900 fluorescence intensity (a.u.)
ATTTTGTTTACCTTATGTGTTTTTCTATTTATCTCGAATTCGGAGTCACCTAGTGCAG | 9950 fluorescence intensity (a.u.)
GTCTGTTCACTTTGATGCCAAAATTTTGACAGGATTTCTTCGGAGTCACCTAGTGCAG | 8180 fluorescence intensity (a.u.)
GTCAGTACACACACGCACAAATCATGAATCTATCATTACTCGGAGTCACCTAGTGCAG | 8780 fluorescence intensity (a.u.)
AGAAAGCCTCATCTCCGGCCCCTCTTCCTCCTTGATTCCGCGGAGTCACCTAGTGCAG | 9330 fluorescence intensity (a.u.)
TTTTTTTTTTTGTCGCCGAGTATTCGTCGTCCCCGACGACCGGAGTCACCTAGTGCAG | 8280 fluorescence intensity (a.u.)
CAACCAAACCCGCCGCTGTATAAATCCGCTCCCATCCGCTCGGAGTCACCTAGTGCAG | 8880 fluorescence intensity (a.u.)
TGGTTCAACACCATCGCTGCACATCTTTTCCAAAATTCCACGGAGTCACCTAGTGCAG | 8760 fluorescence intensity (a.u.)
TCGCTCTCTCCACATCGGTCGTGCGGTCGTGCCGCCATCACGGAGTCACCTAGTGCAG | 8670 fluorescence intensity (a.u.)
CTTTCTTGCGTAGGTAATCAACCATCATATTTTTTTTCTTCGGAGTCACCTAGTGCAG | 8760 fluorescence intensity (a.u.)
TCATTTTCGGTTGTCCACTATTTGGCTTTTCTCACTTCCTCGGAGTCACCTAGTGCAG | 12700 fluorescence intensity (a.u.)
TAGACTTACTCCAATTTTCTCTGATTTCGGCCCAATTTTGCGGAGTCACCTAGTGCAG | 11000 fluorescence intensity (a.u.)
GCTTGGTCCGTCGATCTATCACAATTTCTATTCGACGACGCGGAGTCACCTAGTGCAG | 9670 fluorescence intensity (a.u.)
GGGGCTTGATTTGATTTGGGCGCGTCTCGTGGAGTATCCGCGGAGTCACCTAGTGCAG | 14800 fluorescence intensity (a.u.)
GTCGATCAATCGCCGCCGCTTTTCGTGCCCACCACTTGCGCGGAGTCACCTAGTGCAG | 8740 fluorescence intensity (a.u.)
GCATAGTGAATTCGCTGCTCAGTTCCTATTAGCGGTTATACGGAGTCACCTAGTGCAG | 9040 fluorescence intensity (a.u.)
TATGGAATGGGTTTTGTAATTAGTGTATGTTTAATACTCCCGGAGTCACCTAGTGCAG | 8810 fluorescence intensity (a.u.)
TGCTTGCATTCCGGCGAGTCGCCGCGCGCCGGGCCGGCCGCGGAGTCACCTAGTGCAG | 8050 fluorescence intensity (a.u.)
GGATTGGGATAGAGAGGATTTCTATGAGTTAATTAACTTACGGAGTCACCTAGTGCAG | 8460 fluorescence intensity (a.u.)
TCAGAAATCTTAGTCCTCTTGTTCTTGTTTTCTTCCTTTTCGGAGTCACCTAGTGCAG | 9880 fluorescence intensity (a.u.)
TTGGCCAACTATCCGGTAATAAATACTACCTCTGTTATATCGGAGTCACCTAGTGCAG | 8250 fluorescence intensity (a.u.)
TGCCACCTTGTCTACTTACCTCATCTCATCTCACACCAAACGGAGTCACCTAGTGCAG | 11100 fluorescence intensity (a.u.)
GCAGAGGAATCCGTGGCGATGGGGATGGGGATTCGATGTGCGGAGTCACCTAGTGCAG | 8400 fluorescence intensity (a.u.)
ATGGCTGGTTTTCACGACACATAACCAACTACTCCCTCCACGGAGTCACCTAGTGCAG | 8040 fluorescence intensity (a.u.)

Single entries from above.
For binding signal, ACATGTTGTCACCCTATAGGCAATTGGATGGACCACACACCGGAGTCACCTAGTGCAG reads 8400 fluorescence intensity (a.u.)
For binding signal, GTCAGTACACACACGCACAAATCATGAATCTATCATTACTCGGAGTCACCTAGTGCAG reads 8780 fluorescence intensity (a.u.)
